PubChem BioAssay AID602196, INSERM | 2012
Shown is an unselected part of about 23,000 reagents. In the full data, 455 (2%) were called active. 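Active includes both protection and sensitisation; some change values fall well beyond the stated -50 to +50 range.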 Further read-outs or replicates are left out here. Not stated in the record: the amount of reagent.

- Test: 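Knock-downs that protect lung cancer cells from cisplatin or sensitise them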
- Cells: human A549 lung cancer cells
- Reagents: siRNA pair against human genes
- Timing: 48 h transfection before cisplatin; time from cisplatin to read-out not stated
- Conditions: cisplatin at a dose killing half of control-siRNA cells; exact dose and duration not given
- Measurement: 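Cisplatin cell death as a shift from the 50% death seen with control siRNA; siRNAs toxic or growth-blocking alone scored 0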
- Scale: two-siRNA summed score (-2 to +2): higher = both siRNAs protect from cisplatin killing; -2 means both sensitise; mean protection from cisplatin (shift in death): higher = protection from cisplatin killing
- Hit rule: 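Each siRNA scores 0 if harmful alone by LDH or WST-1, otherwise +1 if it reduces and -1 if it increases cisplatin killing; a gene is active when both siRNAs agree (sum +2 or -2)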
- Meaning of the calls: active = both siRNAs shift cisplatin killing the same way; inactive = no consistent shift, or siRNA harmful alone

SIK1
- two-siRNA summed score (-2 to +2): 0
- mean protection from cisplatin (shift in death) (%): 6.3
- Outcome: inactive

KBTBD12
- two-siRNA summed score (-2 to +2): 0
- mean protection from cisplatin (shift in death) (%): 3.2
- Outcome: inactive

LOC387742
- two-siRNA summed score (-2 to +2): -1
- mean protection from cisplatin (shift in death) (%): 11.5
- Outcome: inactive

B9D1
- two-siRNA summed score (-2 to +2): -1
- mean protection from cisplatin (shift in death) (%): -10.5
- Outcome: inactive

PLGLA
- two-siRNA summed score (-2 to +2): 0
- mean protection from cisplatin (shift in death) (%): 4.5
- Outcome: inactive

IL2RA
- two-siRNA summed score (-2 to +2): -1
- mean protection from cisplatin (shift in death) (%): -10.3
- Outcome: inactive

CLDN17
- two-siRNA summed score (-2 to +2): 0
- mean protection from cisplatin (shift in death) (%): -8.6
- Outcome: inactive

LOC388621
- two-siRNA summed score (-2 to +2): 0
- mean protection from cisplatin (shift in death) (%): 25.1
- Outcome: inactive

LOC442723
- two-siRNA summed score (-2 to +2): 0
- mean protection from cisplatin (shift in death) (%): 14.4
- Outcome: inactive

NCOA4
- two-siRNA summed score (-2 to +2): 0
- mean protection from cisplatin (shift in death) (%): 0.3
- Outcome: inactive

ARRDC3
- two-siRNA summed score (-2 to +2): 0
- mean protection from cisplatin (shift in death) (%): -3.1
- Outcome: inactive

TMED3
- two-siRNA summed score (-2 to +2): 0
- mean protection from cisplatin (shift in death) (%): -3
- Outcome: inactive

Reprinted from above (2 entries):
LOC387742
- two-siRNA summed score (-2 to +2): -1
- mean protection from cisplatin (shift in death) (%): 11.5
- Outcome: inactive

B9D1
- two-siRNA summed score (-2 to +2): -1
- mean protection from cisplatin (shift in death) (%): -10.5
- Outcome: inactive
